Test results taken from publication PMC7819943, “Rice protein-binding microarrays: a tool to detect cis-acting elements near promoter regions in rice”.
This is one part of the list.

The chains behind the UniProt entries cited, without tags or fusion partners.
UniProt Q0JBA9, entry or part of it: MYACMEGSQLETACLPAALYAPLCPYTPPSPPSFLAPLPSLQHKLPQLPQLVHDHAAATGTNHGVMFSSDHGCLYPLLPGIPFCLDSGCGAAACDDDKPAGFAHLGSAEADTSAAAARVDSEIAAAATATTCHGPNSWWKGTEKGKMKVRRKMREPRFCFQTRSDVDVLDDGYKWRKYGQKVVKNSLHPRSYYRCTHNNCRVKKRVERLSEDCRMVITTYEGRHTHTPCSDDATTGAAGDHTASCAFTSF

What follows are sequences tested against OsWRKY34 (Oryza sativa, UniProt Q0JBA9 1-250) (assay: protein-binding microarray (RPBM); PBS, 2% BSA, 51.3 ng/ul salmon testes DNA, 50 uM zinc acetate, 200 nM TF, 25 C, 1 h; high values mean tight binding). Details: protein: recombinant; tags: N-terminal polyhistidine and DsRed monomer fusion (pET32a); label: CyDye5-dUTP incorporated in the synthesized complementary strand; 3' TTTTT single-stranded linker to array surface; dsDNA, one strand shown.
Procedure, shortened: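 Transcription factors were each fused at the N-terminus to a polyhistidine tag plus DsRed and expressed in E. coli BL21-CodonPlus before Ni–NTA purification. Binding to a double-stranded custom Agilent array was carried out with 200 nM protein at 25 °C for 1 h in PBS, 2% BSA, salmon testes DNA and 50 µM zinc acetate. The binding signal is per-feature fluorescence intensity, in arbitrary units, on an Axon 4000B scanner.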

With “ACTTTGCTGCCTATTGTAGATTTGTTATAACGTAGTTACTCGGAGTCACCTAGTGCAG” as the sequence, how does the binding signal read?
The binding signal was 10400 fluorescence intensity (a.u.).

For “GTGGTTGCGGCAGGCTTCGTTTTCAACAGCATTTCATTCCCGGAGTCACCTAGTGCAG”, which binding signal is on record?
The binding signal was 8290 fluorescence intensity (a.u.).

With “TTATAGAATATTTAACTCTTTGTCTTATTTAATAATTTTCCGGAGTCACCTAGTGCAG” as the sequence, how does the binding signal read?
Its binding signal is 8530 fluorescence intensity (a.u.).

How did the binding signal turn out when “GAGTGACATTTGGGGTGGTTTTTGCAATTTTCTCTAAATTCGGAGTCACCTAGTGCAG” was run?
The binding signal was 13000 fluorescence intensity (a.u.).

How did the binding signal turn out when “GGCCGATGATCACAACTCTCCGGGGCCGATTGGGGTTTATCGGAGTCACCTAGTGCAG” was run?
The binding signal was 9230 fluorescence intensity (a.u.).

How did the binding signal turn out when “AGCTCCAAATGATTTTTTCTCCTAAACCGTTTATCTAATTCGGAGTCACCTAGTGCAG” was run?
The binding signal was 9020 fluorescence intensity (a.u.).

For “TGTCTTGGTTTTCGTTCGCATGTTTTTCAAACTTACACACCGGAGTCACCTAGTGCAG”, which binding signal is on record?
The binding signal was 8970 fluorescence intensity (a.u.).

Which binding signal does the source give for “TCTATCCGAACACATGTTTATATATCATTCCTGGGTTTTTCGGAGTCACCTAGTGCAG” here?
Its binding signal is 11700 fluorescence intensity (a.u.).

How did the binding signal turn out when “TCGTGTCCTTCTGCCGCTAAAAGCCCATCTTTTTCTCCTTCGGAGTCACCTAGTGCAG” was run?
The binding signal was 11500 fluorescence intensity (a.u.).

How did the binding signal turn out when “TTCTTCTTCTGCCATTCCATCCATCCACCGCCGCCTCCGCCGGAGTCACCTAGTGCAG” was run?
Its binding signal is 8380 fluorescence intensity (a.u.).

With “ACCTGTGAATGTCTCTAGTGTGACGACTCTACTTCAGTTTCGGAGTCACCTAGTGCAG” as the sequence, how does the binding signal read?
Its binding signal is 8300 fluorescence intensity (a.u.).

How did the binding signal turn out when “CGTCCCACCCCGACCGCCATCCATCCATCGGTGGATATAACGGAGTCACCTAGTGCAG” was run?
Its binding signal is 8870 fluorescence intensity (a.u.).

With “CCCATCCCATCGCGTCTCCTCCGCTTAAATCCCCGCGGCTCGGAGTCACCTAGTGCAG” as the sequence, how does the binding signal read?
The binding signal was 9380 fluorescence intensity (a.u.).

“GGGTGGGTTGATTTGATAGACTTCTTTTGCTTTTGATAAACGGAGTCACCTAGTGCAG” was tested. Which binding signal did it give?
The binding signal was 29100 fluorescence intensity (a.u.).

How did the binding signal turn out when “CCCTCTCGGCTCTCGCTGGTTACCCCTTTCGACCGCCACCCGGAGTCACCTAGTGCAG” was run?
Its binding signal is 10800 fluorescence intensity (a.u.).

How did the binding signal turn out when “CAATTTTTTTTCGTACAATTGCCGCTCTCATTCATAACCACGGAGTCACCTAGTGCAG” was run?
Its binding signal is 9900 fluorescence intensity (a.u.).

With “TAACACTCAACTAATCATACGGTGATGACTCACCTTTTTTCGGAGTCACCTAGTGCAG” as the sequence, how does the binding signal read?
The binding signal was 9380 fluorescence intensity (a.u.).

Which binding signal does the source give for “GTCAATTCTTCTGCTAGCTGTGTAACAATATTCATCTGTACGGAGTCACCTAGTGCAG” here?
Its binding signal is 10100 fluorescence intensity (a.u.).

“ACACATTCAAACTTCTTGACGTCTGACCCTCGACATCTACCGGAGTCACCTAGTGCAG” was tested. Which binding signal did it give?
The binding signal was 9480 fluorescence intensity (a.u.).

How did the binding signal turn out when “GTGGCGGCGGGTGGGGCCCATCTCATGGCTGCTGCCTCTGCGGAGTCACCTAGTGCAG” was run?
The binding signal was 10800 fluorescence intensity (a.u.).

Which binding signal does the source give for “GTGCATCCGTCTTTCTTGCTGCTAGTGTCTTCTTCAGCGACGGAGTCACCTAGTGCAG” here?
Its binding signal is 12200 fluorescence intensity (a.u.).

Which binding signal does the source give for “GTTGCAGTTATGGTGATATATCTCTTCTTTTTACATCAAACGGAGTCACCTAGTGCAG” here?
Its binding signal is 10600 fluorescence intensity (a.u.).

How did the binding signal turn out when “TTCCCCATGTTTTTTTGCCCACTAACTCACTAGCCACCACCGGAGTCACCTAGTGCAG” was run?
The binding signal was 10700 fluorescence intensity (a.u.).
